At least one compound was matched to its structure with a doubt left.
Molecular target: benzodiazepine receptors
Experiment: Inhibition of the binding to benzodiazepine receptors
Conditions: rat brains, 1 hour 30 minutes at 4° C., 3H-RO-15-1788 and 3H-RO-5-4864 as tracers; 90 min; read-out: BDZ receptors (inhibition of the binding to benzodiazepine receptors)

Cc1nnc2n1-c1sc3c(c1C(c1ccccc1Cl)=NC2)CCN(S(=O)(=O)c1ccc(C(F)(F)F)cc1)C3 [Example 4, 6-(2-chlorophenyl)-9-(trifluoromethyl)phenylsulphonyl-7,8,9,10-tetrahydro-1-methyl 4H-pyrido [4',3':4,5] thieno [3,2-f] 1,2,4-triazolo [4,3-a] 1,4-diazepine] gave an IC50 of 4.56 µM.
